Experimental data from paper PMC4884989.
Results are given in words; binding and its absence hold for the method and conditions named. Binding seen in cells or lysates may run through a third protein. Some binding calls cover weakened binding; strength is not graded here. Sequences can lack the tags named with a protein.

By UniProt entry, the sequences of proteins in these tests, tags left out.
UniProt Q99816: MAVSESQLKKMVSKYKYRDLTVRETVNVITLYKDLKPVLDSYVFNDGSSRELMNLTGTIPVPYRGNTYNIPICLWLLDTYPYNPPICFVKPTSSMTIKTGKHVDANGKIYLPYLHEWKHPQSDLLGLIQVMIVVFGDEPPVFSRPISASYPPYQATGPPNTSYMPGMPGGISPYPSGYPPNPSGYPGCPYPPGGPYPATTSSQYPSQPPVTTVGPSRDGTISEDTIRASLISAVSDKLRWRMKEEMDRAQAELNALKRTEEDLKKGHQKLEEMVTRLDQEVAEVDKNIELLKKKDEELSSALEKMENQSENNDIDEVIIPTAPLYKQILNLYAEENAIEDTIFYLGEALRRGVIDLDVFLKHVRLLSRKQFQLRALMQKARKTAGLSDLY

Key:
GST-TSG101 (human) [1] = biological target: GST-TSG101 (human) (UniProt Q99816); assay: pull-down; in vitro competitive binding: glutathione-Sepharose-immobilized GST-TSG101 with in vitro translated HA-Tal and increasing amounts of in vitro translated TSGΔ154-1054, buffer A, 100 μL, 4°C, 2 h; western blot; only the target purified
GST-TSG101 (human) [2] = biological target: GST-TSG101 (human) (UniProt Q99816); assay: pull-down; GST fusion bound to glutathione-Sepharose, in vitro translated prey; buffer A (1% Triton X-100, 20 mM Tris-HCl, 140 mM NaCl, 1 mM EGTA, 10% glycerol, 1.5 mM MgCl2, 1 mM DTT, pH 8.0), 2 h at 4°C; washed with buffer B (20 mM Tris-HCl, 150 mM NaCl, 1% NP-40, pH 8.0); western blot; only the target purified
[3] = biological target: TSG101 expressed in TW01 cells (human) (UniProt Q99816); assay: co-IP; in vivo competitive binding: TW01 cells co-transfected with HA-Tal, TSG101 and increasing level of GFP-TSGΔ154-1054; immunoprecipitation with anti-TSG101 antibody (anti-GST as irrelevant antibody control), protein A sepharose, western blot

B1: HA-Tal (TSG101-associated ligase), in vitro translated (enzyme, UniProt Q6UWE0 1-723)
chain: MPLFFRKRKPSEEARKRLEYQMCLAKEAGADDILDISKCELSEIPFGAFATCKVLQKKVLIVHTNHLTSLLPKSCSLLSLATIKVLDLHDNQLTALPDDLGQLTALQVLNVERNQLMQLPRSIGNLTQLQTLNVKDNKLKELPDTVGELRSLRTLNISGNEIQRLPQMLAHVRTLEMLSLDASAMVYPPREVCGAGTAAILQFLCKESGLEYYPPSQYLLPILEQDGIENSRDSPDGPTDRFSREELEWQNRFSDYEKRKEQKMLEKLEFERRLELGQREHTQLLQQSSSQKDEILQTVKEEQSRLEQGLSEHQRHLNAERQRLQEQLKQTEQNISSRIQKLLQDNQRQKKSSEILKSLENERIRMEQLMSITQEETESLRRRDVASAMQQMLTESCKNRLIQMAYESQRQNLVQQACSSMAEMDERFQQILSWQQMDQNKAISQILQESAMQKAAFEALQVKKDLMHRQIRSQIKLIETELLQLTQLELKRKSLDTESLQEMISEQRWALSSLLQQLLKEKQQREEELREILTELEAKSETRQENYWLIQYQRLLNQKPLSLKLQEEGMERQLVALLEELSAEHYLPIFAHHRLSLDLLSQMSPGDLAKVGVSEAGLQHEILRRVQELLDAARIQPELKPPMGEVVTPTAPQEPPESVRPSAPPAELEVQASECVVCLEREAQMIFLNCGHVCCCQQCCQPLRTCPLCRQDIAQRLRIYHSS
B1 was tested, and the binding (GST-TSG101 (human) [1]) was “binds” and the binding (GST-TSG101 (human) [2]) was “binds”.

B2: HA-Tal expressed in TW01 cells (enzyme, UniProt Q6UWE0 1-723)
chain: MPLFFRKRKPSEEARKRLEYQMCLAKEAGADDILDISKCELSEIPFGAFATCKVLQKKVLIVHTNHLTSLLPKSCSLLSLATIKVLDLHDNQLTALPDDLGQLTALQVLNVERNQLMQLPRSIGNLTQLQTLNVKDNKLKELPDTVGELRSLRTLNISGNEIQRLPQMLAHVRTLEMLSLDASAMVYPPREVCGAGTAAILQFLCKESGLEYYPPSQYLLPILEQDGIENSRDSPDGPTDRFSREELEWQNRFSDYEKRKEQKMLEKLEFERRLELGQREHTQLLQQSSSQKDEILQTVKEEQSRLEQGLSEHQRHLNAERQRLQEQLKQTEQNISSRIQKLLQDNQRQKKSSEILKSLENERIRMEQLMSITQEETESLRRRDVASAMQQMLTESCKNRLIQMAYESQRQNLVQQACSSMAEMDERFQQILSWQQMDQNKAISQILQESAMQKAAFEALQVKKDLMHRQIRSQIKLIETELLQLTQLELKRKSLDTESLQEMISEQRWALSSLLQQLLKEKQQREEELREILTELEAKSETRQENYWLIQYQRLLNQKPLSLKLQEEGMERQLVALLEELSAEHYLPIFAHHRLSLDLLSQMSPGDLAKVGVSEAGLQHEILRRVQELLDAARIQPELKPPMGEVVTPTAPQEPPESVRPSAPPAELEVQASECVVCLEREAQMIFLNCGHVCCCQQCCQPLRTCPLCRQDIAQRLRIYHSS
In the case of B2, the binding [3] is reported as “binds”.
